Results published in patent EP1200455B1, “ENZYME CATALYZED THERAPEUTIC ACTIVATION” (Celmed Oncology (USA), Inc., priority 1999, dated 2001).
At least one read-out could not be matched to a standard name with certainty.

Assays:
Test in all cases: Crystal violet cell proliferation inhibition assay
[1] = system: CCd18co; assay type: cell-based, human; settings: Table 7, crystal violet procedure; normal cells; quantity and unit inferred; 4320 min; read-out: Cytotoxic Activity, CCD18co
Protocol: (§1) Compound concentrations from 1 µM to 3000 µM were tested.
(§2) Numbering in Tables 5 and 6 refer to the structures, shown infra. […] MCF7-TDX was derived from MCF7 breast tumor cells via selection in cell culture in the presence of Tomudex, a direct inhibitor of TS. […] Similarly, H630R10 is a 5FU (fluoropyrimidine) resistant colon cancer epithelial cell line derived from H630 colon cancer cells. […] HT1080, #12, is a fibrosarcoma tumor cell line that expresses high levels ofTS via a transgene introduced into HT1080 tumor cells. Normal cell lines used in these assays include CCD180co (normal colon epithelium) and Det551 (normal skin).
(§3) Table 7. Cytotoxic Activity of NB1024 Isomers

[2] = system: Det551; assay type: cell-based, human; settings: Table 7, crystal violet procedure; normal cells; quantity and unit inferred; 4320 min; read-out: Cytotoxic Activity, Det551
Protocol: as §1, §2, §3

[3] = system: MCF7TDX; assay type: cell-based, human; settings: Table 7, crystal violet procedure; high TS cells; quantity and unit inferred; 4320 min; read-out: Cytotoxic Activity, MCF7TDX
[4] = system: HT1080 # 12; assay type: cell-based; settings: Table 7, crystal violet procedure; high TS cells; quantity and unit inferred; 4320 min; read-out: Cytotoxic Activity, TS HT1480 #12
Protocol: as §1, §2, §3

“5-(2-Bromovinyl)-2'-Deoxyuridine Phenyl N-Methoxy-L-alaninyl Phosphoramidate [NB1011]” gave a CC50 [1] of 461 µM, a CC50 [2] of 263 µM and an IC50 [3] of 4.2 µM. It also gave an IC50 [4] of 4.3 µM.
